{"source": "patent US20240383873A1", "about": "“PESTICIDALLY ACTIVE CYCLIC AMINE COMPOUNDS” (SYNGENTA CROP PROTECTION AG, priority 2021, published 2024)", "test_system": "Tetranychus Urticae (Two-Spotted Spider Mite)", "experiment": "Tetranychus urticae (two-spotted spider mite): feeding/contact activity", "format": "in vivo", "details": "application rate of 200 ppm; bean leaf discs sprayed; mixed population (mobile stages); 8 days after infestation", "procedure": "Example B1: Tetranychus Urticae (Two-Spotted Spider Mite): Feeding/Contact Activity\nBean leaf discs on agar in 24-well microtiter plates were sprayed with aqueous test solutions prepared from 10'000 ppm DMSO stock solutions. After drying the leaf discs were infested with a mite population of mixed ages. The samples were assessed for mortality on mixed population (mobile stages) 8 days after infestation.", "note": "Some results were stated once for a whole list of compounds, not compound by compound.", "data": [{"molecule": "Cc1nc(OCc2cc(C(F)(F)F)ccc2Cl)c(C#N)cc1C(=O)N1CCC(CNS(C)(=O)=O)CC1", "note": "[Compound P1.19]", "values": [{"measurement": "mortality", "result": "at least 80%"}]}, {"molecule": "CN(C)S(=O)(=O)C1CCN(C(=O)c2cc(C#N)c(OCc3cc(Br)ccc3Cl)nc2C(F)F)CC1", "note": "[Compound P1.125]", "values": [{"measurement": "mortality", "result": "at least 80%"}]}, {"molecule": "CC(=O)NCC1CCN(C(=O)c2cc(C#N)c(OCc3cc(C(F)(F)F)ccc3F)nc2C(F)(F)F)CC1", "note": "[Compound P1.12]", "values": [{"measurement": "mortality", "result": "at least 80%"}]}, {"molecule": "CC(=O)NCCOC1CCN(C(=O)c2cc(C#N)c(OCc3ccc4c(c3)OC(F)(F)O4)nc2C(F)F)CC1", "note": "[Compound P1.117]", "values": [{"measurement": "mortality", "result": "at least 80%"}]}, {"molecule": "CN(C)S(=O)(=O)C1CCN(C(=O)c2cc(C#N)c(OCc3ccc(F)c(F)c3)nc2C(F)F)CC1", "note": "[Compound P1.63]", "values": [{"measurement": "mortality", "result": "at least 80%"}]}, {"molecule": "CCN(C)S(=O)(=O)C1CCN(C(=O)c2cc(C#N)c(OCc3cc(Cl)ccc3F)nc2C(F)F)CC1", "note": "[Compound P1.146]", "values": [{"measurement": "mortality", "result": "at least 80%"}]}, {"molecule": "CCNS(=O)(=O)C1CCN(C(=O)c2cc(C#N)c(OCc3ccc(Br)c(F)c3)nc2COC)CC1", "note": "[Compound P1.163]", "values": [{"measurement": "mortality", "result": "at least 80%"}]}, {"molecule": "CCN(CC1CCN(C(=O)c2cc(C#N)c(OCc3cc(C(F)(F)F)ccc3F)nc2C(F)(F)F)CC1)C(C)=O", "note": "[Compound P1.60]", "values": [{"measurement": "mortality", "result": "at least 80%"}]}, {"molecule": "CCN(C)S(=O)(=O)C1CCN(C(=O)c2cc(C#N)c(OCc3ccc4nonc4c3)nc2C2CC2)CC1", "note": "[Compound P1.148]", "values": [{"measurement": "mortality", "result": "at least 80%"}]}, {"molecule": "COCc1nc(OCc2ccc3c(c2)OC(F)(F)O3)c(C#N)cc1C(=O)N1CCC(CC(=O)N(C)C)CC1", "note": "[Compound P1.165]", "values": [{"measurement": "mortality", "result": "at least 80%"}]}, {"molecule": "CCNS(=O)(=O)C1CCN(C(=O)c2cc(C#N)c(OCc3cc4c(cc3Cl)OC(F)(F)O4)nc2COC)CC1", "note": "[Compound P1.100]", "values": [{"measurement": "mortality", "result": "at least 80%"}]}, {"molecule": "CNS(=O)(=O)C1CCN(C(=O)c2cc(C#N)c(OCc3ccc(Br)c(F)c3)nc2COC)CC1", "note": "[Compound P1.106]", "values": [{"measurement": "mortality", "result": "at least 80%"}]}, {"molecule": "CCC(=O)NCC1CCN(C(=O)c2cc(C#N)c(OCc3cc(C(F)(F)F)ccc3F)nc2C(F)(F)F)CC1", "note": "[Compound P1.61]", "values": [{"measurement": "mortality", "result": "at least 80%"}]}, {"molecule": "CNC(=O)N1CCN(C(=O)c2cc(C#N)c(OCc3cc(C(F)(F)F)ccc3F)nc2C)CC1", "note": "[Compound P2.3]", "values": [{"measurement": "mortality", "result": "at least 80%"}]}, {"molecule": "CCNC(=O)N1CCN(C(=O)c2cc(C#N)c(OCc3cc(C(F)(F)F)ccc3F)nc2C(F)(F)F)CC1", "note": "[Compound P2.1]", "values": [{"measurement": "mortality", "result": "at least 80%"}]}, {"molecule": "CN(C)C(=O)COC1CCN(C(=O)c2cc(C#N)c(OCc3cc(C(F)(F)F)ccc3F)nc2C(F)(F)F)CC1", "note": "[Compound P1.46]", "values": [{"measurement": "mortality", "result": "at least 80%"}]}, {"molecule": "COCc1nc(OCc2ccc3c(c2)OC(F)(F)O3)c(C#N)cc1C(=O)N1CCC(S(=O)(=O)C(C)C)CC1", "note": "[Compound P1.62]", "values": [{"measurement": "mortality", "result": "at least 80%"}]}, {"molecule": "Cc1nc(OCc2cc(C(F)(F)F)ccc2F)c(C#N)cc1C(=O)N1CCC(N(C)S(C)(=O)=O)CC1", "note": "[Compound P1.20]", "values": [{"measurement": "mortality", "result": "at least 80%"}]}, {"molecule": "COCc1nc(OCc2cc(F)c(F)cc2F)c(C#N)cc1C(=O)N1CCC(S(=O)(=O)N(C)C)CC1", "note": "[Compound P1.128]", "values": [{"measurement": "mortality", "result": "at least 80%"}]}, {"molecule": "CNS(=O)(=O)C1CCN(C(=O)c2cc(C#N)c(OCc3ccc(Br)c(F)c3)nc2C)CC1", "note": "[Compound P1.166]", "values": [{"measurement": "mortality", "result": "at least 80%"}]}, {"molecule": "CNC(=O)CC1CCN(C(=O)c2cc(C#N)c(OCc3ccc4c(c3)OC(F)(F)O4)nc2COC)CC1", "note": "[Compound P1.158]", "values": [{"measurement": "mortality", "result": "at least 80%"}]}, {"molecule": "CC(=O)N(C)CCC1CCN(C(=O)c2cc(C#N)c(OCc3ccc4c(c3)OC(F)(F)O4)nc2C(F)F)CC1", "note": "[Compound P1.119]", "values": [{"measurement": "mortality", "result": "at least 80%"}]}, {"molecule": "CNS(=O)(=O)C1CCN(C(=O)c2cc(C#N)c(OCc3cc4c(cc3Cl)OC(F)(F)O4)nc2COC)CC1", "note": "[Compound P1.94]", "values": [{"measurement": "mortality", "result": "at least 80%"}]}, {"molecule": "CS(=O)(=O)NCC1CCN(C(=O)c2cc(C#N)c(OCc3cc(C(F)(F)F)ccc3F)nc2C(F)(F)F)CC1", "note": "[Compound P1.15]", "values": [{"measurement": "mortality", "result": "at least 80%"}]}, {"molecule": "CN(C)S(=O)(=O)C1CCN(C(=O)c2cc(C#N)c(OCc3ccc4nonc4c3)nc2C(F)F)CC1", "note": "[Compound P1.126]", "values": [{"measurement": "mortality", "result": "at least 80%"}]}, {"molecule": "CNC(=O)CN1CCN(C(=O)c2cc(C#N)c(OCc3cc(C(F)(F)F)ccc3F)nc2C(F)(F)F)CC1", "note": "[Compound P2.5]", "values": [{"measurement": "mortality", "result": "at least 80%"}]}, {"molecule": "COCc1nc(OCc2cc3c(cc2Cl)OC(F)(F)O3)c(C#N)cc1C(=O)N1CCC(S(=O)(=O)N(C)C)CC1", "note": "[Compound P1.95]", "values": [{"measurement": "mortality", "result": "at least 80%"}]}, {"molecule": "CN(C)C(=O)CC1CCN(C(=O)c2cc(C#N)c(OCc3cc4c(cc3Cl)OC(F)(F)O4)nc2C(F)F)CC1", "note": "[Compound P1.103]", "values": [{"measurement": "mortality", "result": "at least 80%"}]}, {"molecule": "CCNS(=O)(=O)C1CCN(C(=O)c2cc(C#N)c(OCc3ccc4c(c3)OC(F)(F)O4)nc2C2CC2)CC1", "note": "[Compound P1.135]", "values": [{"measurement": "mortality", "result": "at least 80%"}]}, {"molecule": "CCN(C)C(=O)CN1CCN(C(=O)c2cc(C#N)c(OCc3cc(Br)ccc3Cl)nc2C(F)F)CC1", "note": "[Compound P2.55]", "values": [{"measurement": "mortality", "result": "at least 80%"}]}, {"molecule": "CNS(=O)(=O)C1CCN(C(=O)c2cc(C#N)c(OCc3cc(Br)ccc3Cl)nc2COC)CC1", "note": "[Compound P1.124]", "values": [{"measurement": "mortality", "result": "at least 80%"}]}, {"molecule": "CCN(C)S(=O)(=O)C1CCN(C(=O)c2cc(C#N)c(OCc3cc(Cl)ccc3F)nc2COC)CC1", "note": "[Compound P1.142]", "values": [{"measurement": "mortality", "result": "at least 80%"}]}, {"molecule": "CCN(C)S(=O)(=O)C1CCN(C(=O)c2cc(C#N)c(OCc3cc(F)c(F)cc3F)nc2C2CC2)CC1", "note": "[Compound P1.144]", "values": [{"measurement": "mortality", "result": "at least 80%"}]}, {"molecule": "CCN(C)C(=O)CN1CCN(C(=O)c2cc(C#N)c(OCc3ccc(Br)c(F)c3)nc2COC)CC1", "note": "[Compound P2.45]", "values": [{"measurement": "mortality", "result": "at least 80%"}]}, {"molecule": "CCN(C)S(=O)(=O)C1CCN(C(=O)c2cc(C#N)c(OCc3ccc(Br)c(F)c3)nc2COC)CC1", "note": "[Compound P1.109]", "values": [{"measurement": "mortality", "result": "at least 80%"}]}, {"molecule": "CN(C)S(=O)(=O)C1CCN(C(=O)c2cc(C#N)c(OCc3cc(F)c(F)cc3F)nc2C(F)(F)F)CC1", "note": "[Compound P1.23]", "values": [{"measurement": "mortality", "result": "at least 80%"}]}, {"molecule": "CN(C)S(=O)(=O)C1CCN(C(=O)c2cc(C#N)c(OCc3cc4c(cc3Cl)OC(F)(F)O4)nc2C(F)F)CC1", "note": "[Compound P1.89]", "values": [{"measurement": "mortality", "result": "at least 80%"}]}, {"molecule": "CNS(=O)(=O)C1CCN(C(=O)c2cc(C#N)c(OCc3cc4c(cc3Cl)OC(F)(F)O4)nc2C(F)F)CC1", "note": "[Compound P1.105]", "values": [{"measurement": "mortality", "result": "at least 80%"}]}, {"molecule": "CN(C)S(=O)(=O)C1CCN(C(=O)c2cc(C#N)c(OCc3cc(C(F)(F)F)ccc3F)nc2C(F)F)CC1", "note": "[Compound P1.6]", "values": [{"measurement": "mortality", "result": "at least 80%"}]}, {"molecule": "CN(C)C(=O)N(C)CC1CCN(C(=O)c2cc(C#N)c(OCc3ccc4c(c3)OC(F)(F)O4)nc2C(F)F)CC1", "note": "[Compound P1.86]", "values": [{"measurement": "mortality", "result": "at least 80%"}]}, {"molecule": "CNC(=O)COC1CCN(C(=O)c2cc(C#N)c(OCc3ccc4c(c3)OC(F)(F)O4)nc2C(F)F)CC1", "note": "[Compound P1.107]", "values": [{"measurement": "mortality", "result": "at least 80%"}]}, {"molecule": "CNS(=O)(=O)C1CCN(C(=O)c2cc(C#N)c(OCc3ccc(Br)c(F)c3)nc2C(F)F)CC1", "note": "[Compound P1.131]", "values": [{"measurement": "mortality", "result": "at least 80%"}]}, {"molecule": "COCc1nc(OCc2ccc3c(c2)OC(F)(F)O3)c(C#N)cc1C(=O)N1CCN(CC(=O)N(C)C)CC1", "note": "[Compound P2.27]", "values": [{"measurement": "mortality", "result": "at least 80%"}]}, {"molecule": "CCNS(=O)(=O)CC1CCN(C(=O)c2cc(C#N)c(OCc3cc(C(F)(F)F)ccc3F)nc2C(F)(F)F)CC1", "note": "[Compound P1.49]", "values": [{"measurement": "mortality", "result": "at least 80%"}]}, {"molecule": "CCNS(=O)(=O)C1CCN(C(=O)c2cc(C#N)c(OCc3cc(C(F)(F)F)ccc3F)nc2C(F)(F)F)CC1", "note": "[Compound P1.45]", "values": [{"measurement": "mortality", "result": "at least 80%"}]}, {"molecule": "CN(C)S(=O)(=O)C1CCN(C(=O)c2cc(C#N)c(OCc3cccc(C(F)(F)F)c3)nc2C(F)(F)F)CC1", "note": "[Compound P1.32]", "values": [{"measurement": "mortality", "result": "at least 80%"}]}, {"molecule": "CC(=O)NCCC1CCN(C(=O)c2cc(C#N)c(OCc3ccc4c(c3)OC(F)(F)O4)nc2C(F)F)CC1", "note": "[Compound P1.98]", "values": [{"measurement": "mortality", "result": "at least 80%"}]}, {"molecule": "CCN(C)S(=O)(=O)C1CCN(C(=O)c2cc(C#N)c(OCc3ccc(Br)c(F)c3)nc2C2CC2)CC1", "note": "[Compound P1.147]", "values": [{"measurement": "mortality", "result": "at least 80%"}]}]}
